Our source for the binding values is paper PMC7806630, “Molecular basis of the interaction of the human tyrosine phosphatase PTPN3 with the hepatitis B virus core protein” (Scientific Reports, 2021).

Amino acid sequences for entries named in this document (tags omitted). Chains listed by the source or under a name are the forms on record and can include a tag or linker. Residues count along the entry.
GST-tagged PTPN3 PDZ domain (GST-PTPN3-PDZ) (P26045, residues 489-597): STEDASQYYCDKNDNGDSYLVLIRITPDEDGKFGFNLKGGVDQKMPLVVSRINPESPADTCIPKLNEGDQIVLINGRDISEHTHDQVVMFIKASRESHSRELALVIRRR
PDZ domain of PTPN3, residues 504-597, of the holdup assay (P26045, residues 504-597): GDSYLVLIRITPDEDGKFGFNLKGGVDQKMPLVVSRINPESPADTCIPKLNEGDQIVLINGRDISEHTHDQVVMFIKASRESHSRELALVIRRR
UniProt P03146: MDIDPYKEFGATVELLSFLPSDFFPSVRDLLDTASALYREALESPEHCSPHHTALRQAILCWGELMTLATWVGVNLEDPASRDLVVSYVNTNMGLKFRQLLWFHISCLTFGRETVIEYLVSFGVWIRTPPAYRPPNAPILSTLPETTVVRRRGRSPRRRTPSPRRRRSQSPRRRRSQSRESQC
UniProt Q6P0Q8, residues 1104-1192: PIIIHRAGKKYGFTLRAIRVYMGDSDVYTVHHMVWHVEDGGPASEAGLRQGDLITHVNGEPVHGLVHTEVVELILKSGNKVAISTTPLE
UniProt Q6ZWJ1, residues 19-105: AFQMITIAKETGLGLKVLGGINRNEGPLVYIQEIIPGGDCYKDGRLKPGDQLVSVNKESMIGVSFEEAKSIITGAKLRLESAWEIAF

Experiment [1] has as its target PDZ domain of PTPN3 (PTPN3-PDZ), residues 489-597 (human) (UniProt P26045). The experiment can be described thus: NMR titration; 1H,15N HSQC-TROSY of 15N-labelled PTPN3-PDZ (95 uM) with unlabelled full-length HBc as CLPs added to ratios PDZ:HBc 1:0, 1:1.4, 1:5.6, 1:19.4; 20 °C; both purified.
The target of experiment [2] is GST-tagged PTPN3 PDZ domain (GST-PTPN3-PDZ) (human) (UniProt P26045). The experiment can be described thus: pull-down; only the target purified.
The target of experiment [3] is T1, biotinylated PBM-HBc peptide (hepatitis B virus).
T1 sequence (peptide, biotin (position not stated)): RRRRSQSRESQC
The experiment can be described thus: holdup assay; automated high-throughput holdup assay, biotinylated PBM-HBc peptide against the human PDZ domain library, duplicates; threshold binding intensity 0.2.

No constants are given. Whether binding was seen depends on the method and setting. For part of these data: In cells and extracts the contact can be indirect. Some binding calls cover weakened binding; strength is not graded here.

“full-length HBc (hepatitis B virus core protein) assembled into capsid-like particles (from UniProt P03146 1-183)”: the binding result in experiment [1] was “binds”.

For the molecule “HA-Flag-tagged wild-type full-length HBc (HF-HBc WT) (from UniProt P03146 1-183)”, the binding result in experiment [2] was “binds”.

Turning to “PDZ domain of Microtubule-associated serine/threonine-protein kinase 2 (MAST2) (from UniProt Q6P0Q8 1104-1192) (domain or fragment)”, in experiment [3], the binding result is “binds”.

In the case of “PDZ domain of PTPN3, residues 504-597, of the holdup assay (from UniProt P26045 504-597) (domain or fragment)”, the binding entry in experiment [3] is recorded as “binds”.

As for “PDZ domain of Syntaxin-binding protein 4 (STXB4) (from UniProt Q6ZWJ1 19-105) (domain or fragment)”, in experiment [3], the binding result is reported as “binds”.

B1: PDZ domain of beta-2-syntrophin (SNTB2) (domain or fragment, UniProt Q13425 115-198)
chain: RVRVVKQEAGGLGISIKGGRENRMPILISKIFPGLAADQSRALRLGDAILSVNGTDLRQATHDQAVQALKRAGKEVLLEVKFIR
Consider B1, for which, in experiment [3], the binding result is reported as “binds”.

B2: PDZ domain of beta-1-syntrophin (SNTB1) (domain or fragment, UniProt Q13884 112-195)
chain: GVKVLKQELGGLGISIKGGKENKMPILISKIFKGLAADQTQALYVGDAILSVNGADLRDATHDEAVQALKRAGKEVLLEVKYMR
Take B2: in experiment [3], the binding entry is reported as “binds”.

B3: PDZ domain of alpha-1-syntrophin (SNTA1) (domain or fragment, UniProt Q13424 87-170)
chain: RVTVRKADAGGLGISIKGGRENKMPILISKIFKGLAADQTEALFVGDAILSVNGEDLSSATHDEAVQVLKKTGKEVVLEVKYMK
As to B3, the binding entry in experiment [3] is on record as “binds”.

B4: PDZ domain of Synaptojanin-2-binding protein (SYNJ2BP) (domain or fragment, UniProt P57105 13-100)
chain: EINLTRGPSGLGFNIVGGTDQQYVSNDSGIYVSRIKENGAAALDGRLQEGDKILSVNGQDLKNLLHQDAVDLFRNAGYAVSLRVQHRL
As to B4, the binding entry in experiment [3] is “binds”.

B5: PDZ domain of Signal-induced proliferation-associated 1-like protein 2 (SIPA1L2) (domain or fragment, UniProt Q9P2F8 950-1026)
chain: EMTLRRNGLGQLGFHVNFEGIVADVEPFGFAWKAGLRQGSRLVEICKVAVATLTHEQMIDLLRTSVTVKVVIIQPHD
As to B5, the binding entry in experiment [3] was “binds”.

B6: PDZ domain of GIPC2 (domain or fragment, UniProt Q8TF65 117-197)
chain: EVNVYKSEDSLGLTITDNGVGYAFIKRIKDGGVIDSVKTICVGDHIESINGENIVGWRHYDVAKKLKELKKEELFTMKLIE
Consider B6, for which the binding entry in experiment [3] is “binds”.

B7: PDZ domain of GIPC1 (domain or fragment, UniProt O14908 133-213)
chain: EVEVFKSEDALGLTITDNGAGYAFIKRIKEGSVIDHIHLISVGDMIEAINGQSLLGCRHYEVARLLKELPRGRTFTLKLTE
B7: the binding entry in experiment [3] is recorded as “binds”.
